# Data as given in doi:10.1101/2022.10.22.513346 (bioRxiv, 2022).
# These are yes or no findings as the source states them, for the method shown. Binding seen in cells or lysates may run through a third protein. Some binding calls cover weakened binding; strength is not graded here. Where a sequence is shown, tags or fusion partners need not be part of it.
# T1: C-YFP-AGO1^WT (Arabidopsis thaliana) (UniProt O04379)
# T1 sequence: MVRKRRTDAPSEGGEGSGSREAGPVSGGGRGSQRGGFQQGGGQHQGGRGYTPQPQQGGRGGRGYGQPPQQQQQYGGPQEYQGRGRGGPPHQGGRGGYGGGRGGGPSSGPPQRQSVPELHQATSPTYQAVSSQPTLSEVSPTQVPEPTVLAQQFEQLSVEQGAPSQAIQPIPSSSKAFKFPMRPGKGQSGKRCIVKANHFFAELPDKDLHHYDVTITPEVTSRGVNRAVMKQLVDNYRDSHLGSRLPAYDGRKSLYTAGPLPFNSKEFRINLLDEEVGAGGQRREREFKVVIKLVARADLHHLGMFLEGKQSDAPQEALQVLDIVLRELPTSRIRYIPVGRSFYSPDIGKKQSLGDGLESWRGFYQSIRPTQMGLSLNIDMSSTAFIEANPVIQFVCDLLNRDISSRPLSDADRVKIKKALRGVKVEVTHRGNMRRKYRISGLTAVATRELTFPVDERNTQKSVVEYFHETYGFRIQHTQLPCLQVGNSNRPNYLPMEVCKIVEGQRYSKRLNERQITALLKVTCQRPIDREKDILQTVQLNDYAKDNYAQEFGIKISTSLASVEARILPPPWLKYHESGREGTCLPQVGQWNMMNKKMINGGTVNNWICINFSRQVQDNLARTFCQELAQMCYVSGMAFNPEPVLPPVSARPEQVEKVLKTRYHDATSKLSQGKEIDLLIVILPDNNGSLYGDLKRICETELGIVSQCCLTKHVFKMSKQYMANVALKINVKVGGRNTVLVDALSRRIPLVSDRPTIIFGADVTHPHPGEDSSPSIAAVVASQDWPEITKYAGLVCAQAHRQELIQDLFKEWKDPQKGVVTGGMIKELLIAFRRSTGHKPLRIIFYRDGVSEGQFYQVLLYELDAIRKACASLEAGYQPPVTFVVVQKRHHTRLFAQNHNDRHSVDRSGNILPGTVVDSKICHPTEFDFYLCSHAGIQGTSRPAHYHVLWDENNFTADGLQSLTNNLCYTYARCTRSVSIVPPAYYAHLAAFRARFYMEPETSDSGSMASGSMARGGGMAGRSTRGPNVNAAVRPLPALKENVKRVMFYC
# T2: C-YFP-AGO1^K185E/K190E (Arabidopsis thaliana) (UniProt O04379)
# T2 sequence: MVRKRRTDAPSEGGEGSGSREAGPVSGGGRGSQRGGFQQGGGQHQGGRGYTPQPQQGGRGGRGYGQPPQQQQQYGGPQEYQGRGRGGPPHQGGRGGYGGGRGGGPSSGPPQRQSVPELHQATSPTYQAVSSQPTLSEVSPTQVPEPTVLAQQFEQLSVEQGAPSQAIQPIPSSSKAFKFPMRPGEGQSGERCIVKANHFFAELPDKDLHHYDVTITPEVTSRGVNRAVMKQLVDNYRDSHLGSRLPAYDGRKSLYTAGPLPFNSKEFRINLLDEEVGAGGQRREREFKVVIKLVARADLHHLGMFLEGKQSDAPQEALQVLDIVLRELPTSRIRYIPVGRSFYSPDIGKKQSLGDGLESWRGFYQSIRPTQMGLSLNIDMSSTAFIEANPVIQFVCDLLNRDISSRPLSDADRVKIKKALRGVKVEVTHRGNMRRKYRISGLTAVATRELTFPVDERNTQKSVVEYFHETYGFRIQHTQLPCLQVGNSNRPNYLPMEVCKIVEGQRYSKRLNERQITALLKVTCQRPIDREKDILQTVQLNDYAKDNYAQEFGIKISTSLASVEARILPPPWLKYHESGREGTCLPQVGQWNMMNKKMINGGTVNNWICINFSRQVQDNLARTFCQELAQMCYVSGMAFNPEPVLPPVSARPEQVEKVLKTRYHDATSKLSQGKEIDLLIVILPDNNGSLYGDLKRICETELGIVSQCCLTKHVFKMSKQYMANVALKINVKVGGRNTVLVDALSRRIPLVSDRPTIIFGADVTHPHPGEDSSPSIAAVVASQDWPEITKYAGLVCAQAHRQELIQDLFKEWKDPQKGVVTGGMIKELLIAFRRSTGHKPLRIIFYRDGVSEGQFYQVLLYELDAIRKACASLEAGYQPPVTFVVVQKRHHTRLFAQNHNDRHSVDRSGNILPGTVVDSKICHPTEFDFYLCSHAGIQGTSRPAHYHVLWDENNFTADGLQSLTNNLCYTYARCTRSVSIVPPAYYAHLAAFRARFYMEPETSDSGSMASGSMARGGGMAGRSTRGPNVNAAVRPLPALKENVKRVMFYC
# T3: C-YFP-AGO1^Y691E/K185E/K190E (Arabidopsis thaliana) (UniProt O04379)
# T3 sequence: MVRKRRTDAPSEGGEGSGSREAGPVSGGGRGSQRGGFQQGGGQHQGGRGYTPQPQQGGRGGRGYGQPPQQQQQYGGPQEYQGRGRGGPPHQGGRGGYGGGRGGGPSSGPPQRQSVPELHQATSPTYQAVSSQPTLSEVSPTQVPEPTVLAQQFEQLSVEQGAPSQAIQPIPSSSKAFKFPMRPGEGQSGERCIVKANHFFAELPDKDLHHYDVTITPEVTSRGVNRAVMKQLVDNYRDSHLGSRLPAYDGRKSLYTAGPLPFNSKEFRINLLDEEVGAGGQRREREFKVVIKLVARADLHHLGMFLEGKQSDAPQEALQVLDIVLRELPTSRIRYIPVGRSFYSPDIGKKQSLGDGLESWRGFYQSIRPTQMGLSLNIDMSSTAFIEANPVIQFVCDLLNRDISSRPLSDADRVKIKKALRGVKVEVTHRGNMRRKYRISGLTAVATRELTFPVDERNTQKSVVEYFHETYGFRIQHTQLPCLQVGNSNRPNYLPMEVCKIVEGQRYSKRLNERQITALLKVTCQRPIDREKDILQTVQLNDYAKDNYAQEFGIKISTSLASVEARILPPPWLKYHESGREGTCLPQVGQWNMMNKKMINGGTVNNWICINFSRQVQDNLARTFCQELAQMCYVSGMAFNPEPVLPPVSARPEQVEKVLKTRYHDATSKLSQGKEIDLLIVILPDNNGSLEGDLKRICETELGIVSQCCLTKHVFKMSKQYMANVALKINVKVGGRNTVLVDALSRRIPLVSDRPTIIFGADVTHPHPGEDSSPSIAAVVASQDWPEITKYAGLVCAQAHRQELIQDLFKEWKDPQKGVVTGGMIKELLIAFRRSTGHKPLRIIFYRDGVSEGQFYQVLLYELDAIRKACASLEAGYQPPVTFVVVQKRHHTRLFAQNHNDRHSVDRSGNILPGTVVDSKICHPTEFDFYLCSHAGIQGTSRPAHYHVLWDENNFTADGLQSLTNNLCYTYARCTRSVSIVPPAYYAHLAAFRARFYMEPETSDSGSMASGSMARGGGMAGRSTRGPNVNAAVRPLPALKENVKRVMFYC
# T4: C-YFP-AGO1^Y691E (Arabidopsis thaliana) (UniProt O04379)
# T4 sequence: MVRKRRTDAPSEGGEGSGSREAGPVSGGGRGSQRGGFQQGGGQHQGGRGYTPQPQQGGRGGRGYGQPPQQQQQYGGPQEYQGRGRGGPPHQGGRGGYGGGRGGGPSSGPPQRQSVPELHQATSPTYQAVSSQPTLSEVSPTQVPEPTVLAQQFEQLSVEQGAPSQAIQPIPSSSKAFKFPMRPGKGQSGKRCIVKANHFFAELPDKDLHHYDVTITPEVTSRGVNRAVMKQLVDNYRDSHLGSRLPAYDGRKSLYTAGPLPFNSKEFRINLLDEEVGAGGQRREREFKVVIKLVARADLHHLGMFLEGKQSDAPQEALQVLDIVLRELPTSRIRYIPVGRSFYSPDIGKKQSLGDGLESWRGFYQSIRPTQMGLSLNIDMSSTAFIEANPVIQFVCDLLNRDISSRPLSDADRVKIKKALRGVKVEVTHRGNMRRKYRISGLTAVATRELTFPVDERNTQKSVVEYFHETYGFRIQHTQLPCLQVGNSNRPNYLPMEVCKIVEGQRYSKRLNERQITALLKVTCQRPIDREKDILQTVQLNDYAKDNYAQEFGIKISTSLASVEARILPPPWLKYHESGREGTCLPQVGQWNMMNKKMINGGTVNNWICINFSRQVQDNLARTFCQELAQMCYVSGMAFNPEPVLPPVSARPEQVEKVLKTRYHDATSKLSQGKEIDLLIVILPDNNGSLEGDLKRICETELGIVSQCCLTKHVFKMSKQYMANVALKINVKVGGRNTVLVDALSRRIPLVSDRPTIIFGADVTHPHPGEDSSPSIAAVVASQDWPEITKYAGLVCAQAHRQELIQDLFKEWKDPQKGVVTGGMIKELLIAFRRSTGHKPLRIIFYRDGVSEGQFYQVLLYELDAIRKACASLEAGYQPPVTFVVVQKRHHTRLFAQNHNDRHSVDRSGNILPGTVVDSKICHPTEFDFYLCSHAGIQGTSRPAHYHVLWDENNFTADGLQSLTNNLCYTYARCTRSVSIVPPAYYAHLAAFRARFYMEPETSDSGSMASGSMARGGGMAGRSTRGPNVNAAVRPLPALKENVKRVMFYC
# B1: N-YFP-ATI1 (protein, UniProt O82775 1-256)
# chain: MANNEEHPPRGNEWEVVSLTSSAYAAAPGPYNVESRDVRKYDAYYGAETSRDLYMSEHFVFPPSEHENLPIDESLFVAEQRKDGRDLMLEGQGLSDQFHYEAGNNQQSIYGESALGSSRHMESFGSESAVYEHGLVDAEGNLDLHSDGEGEKDVKKSTHNLPCEAWWKRRAISMYSRTREANAIWSLFFAAAVTGLVVLGQRWQQERWQVLQLKWQSSISSEKLGRVLEPLSRLKDVIVRSNPQASLVRSGSSSEV
# How the values were obtained:
# Assay in all cases: split reporter
# [1] = biological target: T1, C-YFP-AGO1^WT (Arabidopsis thaliana)
# [2] = biological target: T2, C-YFP-AGO1^K185E/K190E (Arabidopsis thaliana)
# [3] = biological target: T3, C-YFP-AGO1^Y691E/K185E/K190E (Arabidopsis thaliana)
# [4] = biological target: T4, C-YFP-AGO1^Y691E (Arabidopsis thaliana)
binder,measurement,setting,value
B1,binding,[1],binds weakly
same,binding,[2],binds weakly
same,binding,[3],binds
same,binding,[4],binds
